The source of these data is PubChem BioAssay AID2685 (National Center for Advancing Translational Sciences (NCATS), 2010).

Values joined by “and” are separate entries in the source; they are usually repeats but may differ in a detail not shown here. Equal values may be shown once. Some of the results follow. The main result of the screen is listed elsewhere. These columns were measured beside it and carry no call. Most of these compounds were active or inconclusive in the main read-out, so they are no random draw. The note in brackets gives the kind of curve behind each potency; many fits are weak.

The assay is described as follows: qHTS Assay for Lipid Storage Modulators in Drosophila S3 Cells.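 As to cell number change: cells counted by Cell Tracker Red CMTPX staining in the red channel.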 The settings on record: BODIPY lipid droplet fluorescence, 18-24 h; for cell number change: measured here: cell count max response, cells fed with added oleic acid. The procedure, abridged: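 Laser-scanning cytometry quantifies lipid droplet accumulation (500–530 nm total intensity; droplet/cell object ratio) in oleic acid-fed (400 uM added) Drosophila S3 cells treated with a concentration series. 20 uM Triacsin C defined 100% inhibition.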
(In general: In qHTS, concentration-response curves come from the screen itself.)

Where [1] appears, read: measured here: lipid fluorescence (Fed channel) AC50, cells fed with added oleic acid.
Setting [2] is: measured here: cell number channel AC50, cells fed with added oleic acid.

Consider `OC(Cn1cncn1)c1ccc(Cl)cc1Cl` (stereo not given), for which the cell number change is 5.09%. Under setting [1], the AC50 is 0.411 µM [rising, full curve, poor fit].
With `CN1CCN(NC(=O)COc2cccc(C(F)(F)F)c2)CC1`, the cell number change amounted to 10.9%. The AC50 under setting [2] is 0.82 µM [falling, full curve]. Further, under setting [1], the AC50 was 0.651 µM [falling, partial curve].
As to `CCCc1c(C)[nH]c2ccccc2c1=O`, the cell number change came out at 62%. The AC50 under setting [2] is 29.1 µM [rising, single point]. Under setting [1], the AC50 is 32.6 µM [falling, partial curve, poor fit].
On to `N#C/C(=C\C=C\c1ccccc1)c1nc(-c2ccc(Cl)cc2)cs1`, for which the cell number change stood at 62.7%. For the same compound, the AC50 under setting [2] is 14.6 µM [rising, partial curve].
On to `CCOCCc1nnc(NC(=O)c2cc(OC)c(OC)cc2[N+](=O)[O-])s1`, for which the cell number change was 40.8%. In addition, the AC50 under setting [2] is 29.1 µM [rising, single point].
As to `Cn1ncc2c(NCc3ccccc3)ncnc21`, the cell number change was 1.39% and 107%. In addition, the AC50 under setting [2] is 206 nM [rising, full curve, poor fit] and 29.1 µM [rising, single point]. For the same compound, the AC50 under setting [1] was 0.164 µM [falling, full curve, poor fit].
With `CCCC(=O)Nc1c2c(nn1-c1ccc(OC)cc1)CS(=O)(=O)C2`, the cell number change is 78.5%.
With `COc1ccc(-n2nc3c(c2NC(=O)c2cc(Br)ccc2Cl)CS(=O)C3)cc1` (stereo not given), the cell number change was 18.5%. Besides, under setting [1], the AC50 is 0.92 µM [rising, partial curve].
Consider `CCCC(=O)Nc1nc(C)c(-c2csc(Nc3ccc(Cl)cc3)n2)s1`, for which the cell number change is -50.9%. The AC50 under setting [2] is 20.6 µM [falling, partial curve, poor fit]. Moreover, the AC50 under setting [1] is 20.6 µM [falling, partial curve].
`COc1ccc(CCNC(=O)c2csc3c2CCCC3)cc1`: the cell number change is -2.73%.
On to `Cc1ccc(NC(=O)c2ccncc2)cc1[N+](=O)[O-]`, for which the cell number change worked out at 14%. The AC50 under setting [1] is 0.731 µM [rising, partial curve, poor fit].
On to `COc1ccc(N(C(=O)c2cccnc2)S(=O)(=O)c2ccc3c4c(cccc24)C(=O)N3C)cc1`, for which the cell number change turned out to be 4.23%. Further, under setting [1], the AC50 was 0.517 µM [rising, full curve, poor fit].
Turning to `NCCCC[C@H]1CN=C(N)N1CCC12CC3CC(CC(C3)C1)C2`, the cell number change was -5.28%. Also, the AC50 under setting [1] is 0.00461 µM [falling, full curve, poor fit].
With `O=c1ccc(NS(=O)(=O)c2ccc(Cl)cc2)cn1Cc1ccc(Cl)c(Cl)c1`, the cell number change is -14%. The AC50 under setting [1] was 2.59 µM [falling, partial curve].
For the compound `CCOC(=O)C(=Nc1ccccc1)NO`, the cell number change is -33.1%. Further, under setting [2], the AC50 was 0.291 µM [falling, full curve]. Besides, the AC50 under setting [1] is 1.3 µM [falling, full curve].
`CC1CCN(C(=O)C(Cc2ccccc2)n2cccc2)CC1` (stereo not given): the cell number change was 18.8%. Besides, the half-maximal activity concentration (AC50) under setting [1] was 2.06 µM [falling, partial curve].
Consider `Cc1ccc(/C=N/NC(=O)c2cccs2)o1`, for which the cell number change was determined as 75.6%. Also, the AC50 under setting [2] is 18.4 µM [rising, single point]. Also, under setting [1], the AC50 was 0.651 µM [rising, partial curve].
Turning to `O=C(COc1cccc(Cl)c1)Nc1ccc2c(c1)CCC2`, under setting [2], the AC50 was 6.51 µM [rising, single point].
Turning to `O=C(Nc1ccc(-c2n[nH]c(=S)o2)cc1)c1ccccc1Cl`, the cell number change is -13.5%. Also, under setting [1], the AC50 is 11.6 µM [falling, partial curve, poor fit].
With `Cc1nn(-c2ccccc2)nc1C(=O)Nc1ccc2c(c1)OCCO2`, the cell number change was 3.41%. In addition, the AC50 under setting [1] was 0.00461 µM [rising, full curve, poor fit].
For the compound `Cc1ccnc2nc(C(=O)Nc3nc4ccccc4s3)nn12`, the cell number change was -20%. For the same compound, the AC50 under setting [1] was 16.4 µM [falling, partial curve].
Consider `CCOc1cc(/C=C2\CCCC(C(=O)C(F)(F)F)=C2O)ccc1O`, for which the cell number change was -51%. Under setting [2], the AC50 is 29.1 µM [falling, single point]. The AC50 under setting [1] was 16.4 µM [falling, partial curve].
As to `Cc1ccc(C)c(OCC(O)CN2CCC(CN3C(=O)c4cccc5cccc(c45)C3=O)CC2)c1` (stereo not given), the cell number change was determined as 18.8%. In addition, the AC50 under setting [1] was 6.51 µM [falling, partial curve, poor fit].
Take `CC(C)CCNC(=O)c1nnc(Cc2ccc(Cl)cc2)o1`: the AC50 under setting [2] is 0.651 µM [falling, full curve, poor fit].
Take `O=C(Nc1cccc(OCC(=O)N2CCOCC2)c1)c1cccc(Cl)c1`: the cell number change is -23.3%. Further, the AC50 under setting [1] was 29.1 µM [rising, single point].
For the compound `COc1ccc(OC)c(/C=N/c2oc(-c3ccco3)c(-c3ccco3)c2C#N)c1`, the cell number change was found to be 5.78%.
For `COc1ccc(C(=O)NCC(O)COc2ccc(C(C)(C)C)cc2)cc1[N+](=O)[O-]` (stereo not given), the cell number change was -12.3%. In addition, the AC50 under setting [1] was 0.116 µM [falling, full curve, poor fit].
For `Cc1ccccc1Nc1nc(N)nc(CSCc2c(C)noc2C)n1`, the AC50 runs as follows: under setting [2], 0.103 µM [rising, partial curve, poor fit]; under setting [1], 0.0651 µM [rising, full curve].
Turning to `COC(=O)c1sccc1NC(=O)c1ccc(OC)cc1OC`, the cell number change was -50%. The AC50 under setting [2] was 18.4 µM [falling, single point]. For the same compound, the AC50 under setting [1] was 6.51 µM [rising, single point].
Consider `Nc1nnc(SCCOc2ccc(Br)cc2)s1`, for which the cell number change stood at 12.6%. For the same compound, the AC50 under setting [1] is 2.06 µM [rising, partial curve].
As for `CCOC(=O)C1CCCN(/C=C2\SC(=S)N(CC)C2=O)C1` (stereo not given), the cell number change is -28.7%. Also, the AC50 under setting [2] is 0.164 µM [falling, full curve, poor fit].
In the case of `CC1(C)Oc2ccc3ccc(=O)oc3c2/C(=C/Nc2ccccc2)C1=O`, the cell number change was 19.4%. In addition, under setting [2], the AC50 is 6.51 µM [rising, single point]. The AC50 under setting [1] is 6.51 µM [rising, single point].
Take `Cc1ccc(C)c(Cn2cnc3c(nnn3-c3ccc(F)cc3)c2=O)c1`: the cell number change was determined as 4.21%. For the same compound, the AC50 under setting [2] is 1.84 µM [rising, partial curve]. Besides, the AC50 under setting [1] is 1.03 µM [rising, full curve].
Regarding `O=C(O)c1ccc(NC(=S)Nc2ccccc2)cc1`, under setting [1], the AC50 is 6.51 µM [rising, single point].
For `Cn1cccc1C(=O)NC1CCCCC1`, the cell number change is -27%. Moreover, under setting [2], the AC50 is 3.66 µM [falling, full curve, poor fit]. In addition, under setting [1], the AC50 was 1.84 µM [falling, full curve].
With `C/C(CC(=O)Nc1ccccn1)=N\NC(=O)c1ccc2ccccc2c1`, the cell number change came to 8.44%. The AC50 under setting [1] was 1.03 µM [rising, full curve].
For `COc1ccc(-n2c(C)cc3cc(OC(C)=O)ccc32)cc1`, the cell number change is -5.03%. In addition, the AC50 under setting [1] was 29.1 µM [rising, single point].
Take `Cc1ccnc(SCc2ccc(C(=O)O)cc2)n1`: the cell number change amounted to 27.5%.
For the compound `Cc1ccc(-c2nnc(SCC(=O)n3c4c(c5ccccc53)CCCC4)o2)cc1`, the AC50 is 0.82 µM [falling, single point] under setting [2] and 29.1 µM [falling, single point] under setting [1].
With `CC(C)N(Cc1nc(-c2ccccc2)no1)C(=O)CCCN1C(=O)c2ccccc2C1=O`, the cell number change is 1.42%. Under setting [1], the AC50 is 2.06 µM [rising, partial curve].
Regarding `NS(=O)(=O)c1ccc(CCNC(=O)CNC(=O)C2CCCCC2)cc1`, the cell number change was 4.15%. Moreover, the AC50 under setting [1] is 29.1 µM [rising, single point].
On to `O=C(N/C=C\c1ccccc1)NCc1ccc(Cl)cc1`, for which the cell number change was -0.903%.
`COC(=O)c1cc2nc(-c3ccc(C)cc3)cc(C(F)(F)F)n2n1`: the cell number change is -6.44%. Besides, the AC50 under setting [1] is 6.51 µM [falling, single point].
Consider `CCOc1ccccc1N1CCN(C(=O)c2ccc3[nH]c(C)c(C)c3c2)CC1`, for which the cell number change amounted to 9.54%. The AC50 under setting [1] was 29.1 µM [rising, single point].
Consider `C[C@@]12C(=O)N(c3ccc(F)cc3)C(=O)N1[C@@H]1c3ccccc3OC[C@@H]1[C@H]2c1ccccc1`, for which the cell number change turned out to be 5.69%.
For the compound `CC(C)CN(C(=O)COC(=O)C1=COCCO1)c1c(N)n(Cc2ccccc2)c(=O)[nH]c1=O`, the cell number change is -22.1%. For the same compound, the AC50 under setting [2] is 0.82 µM [falling, partial curve, poor fit].
With `O=C(/C(=N/N=C/c1ccc(O)c(O)c1)c1ccccc1)c1ccccc1`, the cell number change was -65.2%. Also, the AC50 under setting [2] is 14.6 µM [falling, partial curve]. Moreover, the AC50 under setting [1] was 14.6 µM [falling, partial curve].
With `Cc1ccc(N(C(=O)c2snc(C(N)=O)c2N)C(C(=O)NC2CCCC2)c2ccco2)cc1` (stereo not given), the cell number change was -1.61%. Besides, the AC50 under setting [1] was 0.103 µM [rising, full curve, poor fit].
As for `CC(C)OCCCNC(=O)Cc1ccc(Br)cc1`, the cell number change is -12.4%. The AC50 under setting [2] is 6.51 µM [rising, single point]. Besides, the AC50 under setting [1] is 5.8 µM [rising, single point].
As to `CC(C)(C)[C@@H]1C=C(C(N)=O)O[C@H](OCc2ccc(CO)cc2)C1`, the cell number change was -15.5%. For the same compound, the AC50 under setting [1] is 1.46 µM [falling, partial curve, poor fit].
With `COCn1ccnc1C(O)(c1ccc(OC)cc1)c1ccc(OC)cc1`, the cell number change came to 32%. Also, under setting [2], the AC50 was 3.66 µM [rising, full curve]. In addition, under setting [1], the AC50 was 0.58 µM [rising, full curve].
Regarding `NC(=O)C1CCN(C(=O)C2CCN(C(=O)Nc3ccccc3)CC2)CC1`, the cell number change was -19.7%.
On to `Cc1cccc(NC(=O)c2cc(NC(=O)c3ccccc3)ccc2N2CCCCC2)c1`, for which the cell number change is 59.2%. In addition, the AC50 under setting [2] is 0.058 µM [rising, full curve, poor fit]. Besides, the AC50 under setting [1] is 3.66 µM [rising, full curve].
With `CCCCCCC(=O)N(O)C1CC(=O)N(c2ccc(F)cc2)C1=O` (stereo not given), the cell number change was -68%. Further, under setting [2], the AC50 is 18.4 µM [falling, single point]. In addition, under setting [1], the half-maximal activity concentration (AC50) is 20.6 µM [falling, partial curve].
For the compound `COc1cccc(/C=C(/C(=O)OCC(=O)NC2CCCC(C)C2C)c2ccccc2)c1` (stereo not given), the cell number change was -2.59%. For the same compound, the AC50 under setting [1] was 0.517 µM [rising, full curve].
As for `CCC(=O)N1CCN(c2ccc(NC(=O)c3c(F)c(F)c(OC)c(F)c3F)cc2)CC1`, the cell number change is 7.13%.
In the case of `O=C(CCCCn1c(=O)c2ccccc2n(Cc2ccc(Cl)cc2)c1=O)NCc1ccco1`, the cell number change is -120%. The AC50 under setting [2] was 29.1 µM [falling, single point]. For the same compound, under setting [1], the AC50 was 29.1 µM [falling, single point].

The AC50 is the midpoint of the concentration-response curve, whichever way the signal moves. A lower AC50 goes with greater potency.
